PubChem BioAssay AID1224830, NIAID, 2016

Assay: 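Genes whose knock-down alters the TNF-alpha reporter response to LPS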 (primary screen)
System: human THP-1 monocytic leukaemia cells, TNF dual-luciferase reporter clone, PMA-differentiated to macrophage-like cells
Reagent: siRNA pool against human genes, 50 nM
Time to read-out: LPS for 4 h, given about 3 days after siRNA transfection
Treatment: bacterial LPS (TLR4 ligand), 10 ng/ml
Measurement: 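Ratio of firefly to renilla light, scaled to the plate median and expressed as a robust z-score per replicate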
Scale: TNF reporter robust z-score: higher = stronger TNF reporter response to LPS
Active means: 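Each well counts as active if its z-score is over 2.8 or under -1.5; controls are left without a call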
Here is an unselected part of about 18,000 deposited reagents. About 2,900 of them (16%) were called active. 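Calls are made per well; low scores hint the gene aids the LPS response, high scores that it dampens it.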 Unmarked entries are inactive. Repeated entries: four replicate wells of each siRNA pool.

ATAD3B showed TNF reporter robust z-score 0.35.
With knock-down of ATAD3B, the record shows TNF reporter robust z-score -0.04.
For ATAD3B the deposit lists TNF reporter robust z-score -0.16.
ATAD3B showed TNF reporter robust z-score 1.23.
Knock-down of IL16 resulted in: TNF reporter robust z-score 1.56.
IL16 gave TNF reporter robust z-score 0.46.
With knock-down of IL16, the screen gave TNF reporter robust z-score 1.
IL16 gave TNF reporter robust z-score 1.9.
For PLXDC2, the values are TNF reporter robust z-score 0.22.
PLXDC2 scored TNF reporter robust z-score 0.81.
With knock-down of PLXDC2, the record shows TNF reporter robust z-score 0.31.
PLXDC2 showed TNF reporter robust z-score -0.3.
With knock-down of MCPH1, the screen gave TNF reporter robust z-score -0.72.
For MCPH1 the deposit lists TNF reporter robust z-score 0.06.
MCPH1 scored TNF reporter robust z-score -0.47.
With knock-down of MCPH1, the record shows TNF reporter robust z-score -0.5.
Depletion of MPRIP came out at: TNF reporter robust z-score 1.74.
For MPRIP, the values are TNF reporter robust z-score 0.45.
MPRIP showed TNF reporter robust z-score -0.47.
Depletion of MPRIP gave: TNF reporter robust z-score -0.15.
GTPBP3 scored TNF reporter robust z-score -0.76.
GTPBP3 showed TNF reporter robust z-score -0.14.
Against GTPBP3, the entry reads TNF reporter robust z-score -0.45.
After knock-down of KCTD7 the results were TNF reporter robust z-score -0.91.
Knock-down of KCTD7 came out at: TNF reporter robust z-score -0.67.
For KCTD7, the values are TNF reporter robust z-score -0.6.
DCANP1 showed TNF reporter robust z-score 2.32.
DCANP1 showed TNF reporter robust z-score 1.88.
For DCANP1, the entry reads TNF reporter robust z-score 2.
With knock-down of DCANP1 the results were TNF reporter robust z-score 0.89.
After knock-down of C1QTNF5, the screen gave TNF reporter robust z-score -1.6 (active).
Knock-down of C1QTNF5 gave: TNF reporter robust z-score -1.12.
For C1QTNF5 the deposit lists TNF reporter robust z-score -1.02.
For C1QTNF5, the values are TNF reporter robust z-score -0.38.
